{"source": "the supplement of paper PMC3334620", "note": "Over roughly 33,000 sequences, “E-score (-0.5 to 0.5)” has its median near -0.0059; the highest 2% begin near 0.26. The list shows a part of the results."}
{"target": "T1, Cin5 (UniProt P40917)", "T1 sequence": "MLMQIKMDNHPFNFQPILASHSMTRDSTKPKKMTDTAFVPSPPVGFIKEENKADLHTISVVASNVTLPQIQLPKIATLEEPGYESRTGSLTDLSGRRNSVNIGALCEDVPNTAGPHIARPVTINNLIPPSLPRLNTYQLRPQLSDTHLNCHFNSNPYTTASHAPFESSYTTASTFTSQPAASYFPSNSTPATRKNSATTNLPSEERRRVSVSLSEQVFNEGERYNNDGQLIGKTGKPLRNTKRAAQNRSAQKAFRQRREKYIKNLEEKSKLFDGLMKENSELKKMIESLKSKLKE", "assay": "PBM E-score (8-mer binding enrichment) (E-score (-0.5 to 0.5)); higher = stronger / more preferred TF binding", "settings": "protein concentration: 100 nM; construct: GST-full length", "summary_of_the_method": "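Detection of bound protein used fluorescent anti-GST, with scans normalised by masliner. The proteins were GST-tagged yeast transcription factors applied at about 100-200 nM to universal all-10-mer Agilent arrays made double-stranded by primer extension. Each ungapped eight-base word, pooled with its reverse complement, was scored with an E-score from the Universal PBM Analysis Suite.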"}
{"sequence": "ATGCCAGG", "PBM E-score": -0.104}
{"sequence": "ATAGGAAG", "PBM E-score": 0.0698}
{"sequence": "AGGAACTA", "PBM E-score": 0.0267}
{"sequence": "CGTGATCA", "PBM E-score": 0.154}
{"sequence": "CTATCATC", "PBM E-score": -0.0686}
{"sequence": "ACTGAGGG", "PBM E-score": -0.211}
{"sequence": "CGGTCCAA", "PBM E-score": -0.26}
{"sequence": "ATAAAGCA", "PBM E-score": 0.0862}
{"sequence": "ATATCAAG", "PBM E-score": 0.246}
{"sequence": "CATACAGG", "PBM E-score": -0.114}
{"sequence": "CCCCTGAG", "PBM E-score": -0.102}
{"sequence": "AGATGTAA", "PBM E-score": 0.169}
{"sequence": "AAACTTAG", "PBM E-score": -0.00442}
{"sequence": "ATCTGCCC", "PBM E-score": -0.0664}
{"sequence": "TCGATACA", "PBM E-score": 0.226}
{"sequence": "TTCGCGAA", "PBM E-score": 0.227}
{"sequence": "CATAGATA", "PBM E-score": 0.183}
{"sequence": "CGGAAAGC", "PBM E-score": 0.16}
{"sequence": "CCAAGTGA", "PBM E-score": 0.00582}
{"sequence": "ATCGCACC", "PBM E-score": -0.0935}
{"sequence": "AAGGTTCC", "PBM E-score": -0.0349}
{"sequence": "GGCGTACC", "PBM E-score": -0.0778}
{"sequence": "CCGATAAC", "PBM E-score": 0.0223}
{"sequence": "ACAGTGAT", "PBM E-score": 0.174}
{"sequence": "ATTAGGAG", "PBM E-score": 0.0343}
{"sequence": "ATGGAAGC", "PBM E-score": 0.00206}
{"sequence": "CAGACATC", "PBM E-score": -0.00699}
{"sequence": "AATGCGGG", "PBM E-score": 0.273}
{"sequence": "GGCGGTAA", "PBM E-score": 0.0493}
{"sequence": "GTTTTGAA", "PBM E-score": 0.0635}
{"sequence": "CCAGGAGA", "PBM E-score": -0.119}
{"sequence": "CATGGAGA", "PBM E-score": 0.0291}
{"sequence": "GGATCGCA", "PBM E-score": 0.0218}
{"sequence": "CCCCTAAA", "PBM E-score": -0.192}
{"sequence": "CCTGATAA", "PBM E-score": 0.0215}
{"sequence": "TACTTTGA", "PBM E-score": 0.0811}
{"sequence": "TAACGGTA", "PBM E-score": 0.0738}
{"sequence": "GGGTCCGA", "PBM E-score": -0.221}
{"sequence": "CCTAACAA", "PBM E-score": 0.095}
{"sequence": "CATCGCTC", "PBM E-score": -0.152}
{"sequence": "CAGGCTGC", "PBM E-score": -0.175}
{"sequence": "GTATTAAA", "PBM E-score": 0.149}
{"sequence": "TAGGTAGA", "PBM E-score": 0.0877}
{"sequence": "AAGTAAAG", "PBM E-score": 0.011}
{"sequence": "ATTCCCAG", "PBM E-score": 0.0992}
{"sequence": "CCTTCAAA", "PBM E-score": -0.0128}
{"sequence": "GTACTCAC", "PBM E-score": 0.13}
{"sequence": "TTGTCAAA", "PBM E-score": -0.0051}
{"sequence": "CTGGCGAC", "PBM E-score": -0.162}
{"sequence": "AACCGTCA", "PBM E-score": -0.0787}
{"sequence": "AACCTTCG", "PBM E-score": 0.0239}
{"sequence": "CGTCTCTA", "PBM E-score": -0.21}
{"sequence": "GCAAATAA", "PBM E-score": 0.144}
{"sequence": "ATATGCTA", "PBM E-score": 0.152}
{"sequence": "CCTCCCAA", "PBM E-score": -0.0527}
{"sequence": "GAACTAGA", "PBM E-score": -0.00859}
{"sequence": "ACGCTGCT", "PBM E-score": -0.0727}
{"sequence": "CAAATTGC", "PBM E-score": 0.133}
{"sequence": "GGAGGAGA", "PBM E-score": -0.152}
{"sequence": "CTTGAATA", "PBM E-score": 0.0347}
{"sequence": "GCTTCTAC", "PBM E-score": -0.127}
{"sequence": "AGCAATGG", "PBM E-score": -0.0829}
{"sequence": "AGGACAGA", "PBM E-score": 0.0352}
{"sequence": "ATGGTGAG", "PBM E-score": 0.00846}
{"sequence": "GACCAGTC", "PBM E-score": -0.195}
{"sequence": "CCGGTGAC", "PBM E-score": -0.234}
{"sequence": "ACTAGCAC", "PBM E-score": -0.0242}
{"sequence": "AGTTGTAA", "PBM E-score": 0.11}
{"sequence": "ATTTTATA", "PBM E-score": 0.272}
{"sequence": "CTCCGATA", "PBM E-score": -0.0279}
{"sequence": "CGCGGGAA", "PBM E-score": 0.0964}
{"sequence": "GTGAGTTA", "PBM E-score": 0.0327}
{"sequence": "AGTGATGA", "PBM E-score": 0.0434}
{"sequence": "AGTATTAA", "PBM E-score": 0.242}
{"sequence": "CTCGCAAG", "PBM E-score": -0.00586}
{"sequence": "ACCCAGGC", "PBM E-score": -0.154}
{"sequence": "CCGCCGAA", "PBM E-score": 0.0209}
{"sequence": "CAACTGAA", "PBM E-score": 0.055}
{"sequence": "ATGGGGCA", "PBM E-score": 0.0318}
{"sequence": "GGAGATCA", "PBM E-score": 0.114}
{"sequence": "AAGACATA", "PBM E-score": 0.172}
{"sequence": "CTCGGGGA", "PBM E-score": -0.0346}
{"sequence": "AACAAGTC", "PBM E-score": 0.0146}
{"sequence": "CTCCAGAA", "PBM E-score": -0.191}
{"sequence": "ACATCTAT", "PBM E-score": 0.218}
{"sequence": "AGCACCCC", "PBM E-score": -0.0702}
{"sequence": "GGACATAA", "PBM E-score": 0.08}
{"sequence": "CCTCACTC", "PBM E-score": -0.00675}
{"sequence": "CGGCGGTC", "PBM E-score": -0.269}
{"sequence": "AGGCTAAC", "PBM E-score": -0.0455}
{"sequence": "GTGTTGTA", "PBM E-score": 0.0125}
{"sequence": "CAACACCC", "PBM E-score": 0.0126}
{"sequence": "CTCGCCCC", "PBM E-score": -0.135}
{"sequence": "TAGTAAGA", "PBM E-score": 0.146}
{"sequence": "ATAATAAG", "PBM E-score": 0.225}
{"sequence": "ATAGCTTG", "PBM E-score": -0.0958}
{"sequence": "GTAAAATA", "PBM E-score": 0.1}
{"sequence": "ACGCTGAT", "PBM E-score": 0.0851}
{"sequence": "AACCGGCT", "PBM E-score": 0.0113}
{"sequence": "CAGTGTCC", "PBM E-score": -0.152}
{"sequence": "CCACCTTA", "PBM E-score": 0.0255}
{"sequence": "GTCAGGAA", "PBM E-score": -0.0079}
{"sequence": "GCGTCCAC", "PBM E-score": -0.283}
{"sequence": "AATTGGTG", "PBM E-score": 0.173}
{"sequence": "ACGGCGTC", "PBM E-score": -0.0496}
{"sequence": "CGTATAAC", "PBM E-score": 0.043}
{"sequence": "ATACTGCC", "PBM E-score": 0.141}
{"sequence": "GCTTAAAA", "PBM E-score": 0.025}
{"sequence": "CATTTCCA", "PBM E-score": 0.112}
{"sequence": "AATGAGCG", "PBM E-score": 0.127}
{"sequence": "CGATATCC", "PBM E-score": 0.0948}
{"sequence": "GGATCTAC", "PBM E-score": -0.115}
{"sequence": "ATACAAGA", "PBM E-score": 0.0665}
{"sequence": "CGATGTAA", "PBM E-score": 0.102}
{"sequence": "AACTGACC", "PBM E-score": -0.149}
{"sequence": "AACAACCA", "PBM E-score": 0.231}
{"sequence": "GGTATGGA", "PBM E-score": 0.0264}
{"sequence": "CTCCATCC", "PBM E-score": -0.174}
{"sequence": "ACGCGTAG", "PBM E-score": 0.00813}
{"sequence": "CATCACGG", "PBM E-score": 0.025}
{"sequence": "CTAAGCAC", "PBM E-score": 0.183}
{"sequence": "GACTAGGC", "PBM E-score": -0.137}
{"sequence": "AAGGTGCT", "PBM E-score": 0.0441}
{"sequence": "CCCAATGA", "PBM E-score": 0.0295}
{"sequence": "TCGAAAGA", "PBM E-score": 0.101}
{"sequence": "CTCCCTTA", "PBM E-score": -0.217}
{"sequence": "CCCATGTC", "PBM E-score": -0.138}
{"sequence": "CCATCCTA", "PBM E-score": 0.0673}
{"sequence": "CGGGCCAC", "PBM E-score": -0.156}
{"sequence": "TAGAATCA", "PBM E-score": -0.0766}
{"sequence": "ATTAACCC", "PBM E-score": 0.1}
{"sequence": "ACTAGTGA", "PBM E-score": -0.158}
{"sequence": "CTAAATTA", "PBM E-score": 0.258}
{"sequence": "GCAGCCGC", "PBM E-score": -0.083}
{"sequence": "GGTCGCCA", "PBM E-score": -0.179}
{"sequence": "GCTTGGAC", "PBM E-score": -0.281}
{"sequence": "AGTAGCGC", "PBM E-score": 0.0546}
{"sequence": "AAAACTTG", "PBM E-score": 0.145}
{"sequence": "CACGGGAC", "PBM E-score": -0.118}
{"sequence": "GCCCAAGC", "PBM E-score": -0.0456}
{"sequence": "AATGCGAC", "PBM E-score": 0.109}
{"sequence": "GTTAGTTA", "PBM E-score": 0.225}
{"sequence": "AATAGATG", "PBM E-score": 0.23}
{"sequence": "CGTGCTGC", "PBM E-score": -0.204}
{"sequence": "ACACTCGA", "PBM E-score": 0.0854}
{"sequence": "GCCGAGCC", "PBM E-score": -0.112}
{"sequence": "CACTGTCC", "PBM E-score": -0.152}
{"sequence": "CATTTGAA", "PBM E-score": 0.0456}
{"sequence": "CTCTCCGC", "PBM E-score": -0.0751}
{"sequence": "AACTGATA", "PBM E-score": 0.112}
{"sequence": "CTGCAACC", "PBM E-score": -0.163}
{"sequence": "GTACTTTA", "PBM E-score": 0.18}
{"sequence": "CCCAGCCG", "PBM E-score": -0.234}
{"sequence": "TAGTGAAA", "PBM E-score": -0.0594}
{"sequence": "CCCTAGGC", "PBM E-score": -0.122}
{"sequence": "CGTACTAG", "PBM E-score": -0.0725}
{"sequence": "GGACCTTA", "PBM E-score": -0.0841}
{"sequence": "CTACCCGA", "PBM E-score": -0.0656}
{"sequence": "ATGACCGA", "PBM E-score": -0.0424}
{"sequence": "AGAGGCGG", "PBM E-score": -0.106}
{"sequence": "CGGGCACC", "PBM E-score": -0.278}
{"sequence": "AAACTCTG", "PBM E-score": 0.0517}
{"sequence": "ATTTTCTA", "PBM E-score": 0.172}
{"sequence": "GGTACCAA", "PBM E-score": -0.056}
{"sequence": "AAAAGTTC", "PBM E-score": 0.206}
{"sequence": "ATGCGTAA", "PBM E-score": 0.19}
{"sequence": "TATACCCA", "PBM E-score": -0.0483}
{"sequence": "CCCTTGCG", "PBM E-score": -0.282}
{"sequence": "AGTGTATC", "PBM E-score": 0.125}
{"sequence": "CGCAAGTC", "PBM E-score": -0.197}
{"sequence": "AGGGTCGG", "PBM E-score": -0.243}
{"sequence": "AGAGCACT", "PBM E-score": -0.127}
